In publication PMC6030168:
No constants are given. Whether binding was seen depends on the method and setting. Binding seen in cells or lysates may run through a third protein. Some entries that bind do so weakly or less than the wild type.

Molecular target: T1, β-catenin (human (endogenous in SW480)), P35222
T1 chain: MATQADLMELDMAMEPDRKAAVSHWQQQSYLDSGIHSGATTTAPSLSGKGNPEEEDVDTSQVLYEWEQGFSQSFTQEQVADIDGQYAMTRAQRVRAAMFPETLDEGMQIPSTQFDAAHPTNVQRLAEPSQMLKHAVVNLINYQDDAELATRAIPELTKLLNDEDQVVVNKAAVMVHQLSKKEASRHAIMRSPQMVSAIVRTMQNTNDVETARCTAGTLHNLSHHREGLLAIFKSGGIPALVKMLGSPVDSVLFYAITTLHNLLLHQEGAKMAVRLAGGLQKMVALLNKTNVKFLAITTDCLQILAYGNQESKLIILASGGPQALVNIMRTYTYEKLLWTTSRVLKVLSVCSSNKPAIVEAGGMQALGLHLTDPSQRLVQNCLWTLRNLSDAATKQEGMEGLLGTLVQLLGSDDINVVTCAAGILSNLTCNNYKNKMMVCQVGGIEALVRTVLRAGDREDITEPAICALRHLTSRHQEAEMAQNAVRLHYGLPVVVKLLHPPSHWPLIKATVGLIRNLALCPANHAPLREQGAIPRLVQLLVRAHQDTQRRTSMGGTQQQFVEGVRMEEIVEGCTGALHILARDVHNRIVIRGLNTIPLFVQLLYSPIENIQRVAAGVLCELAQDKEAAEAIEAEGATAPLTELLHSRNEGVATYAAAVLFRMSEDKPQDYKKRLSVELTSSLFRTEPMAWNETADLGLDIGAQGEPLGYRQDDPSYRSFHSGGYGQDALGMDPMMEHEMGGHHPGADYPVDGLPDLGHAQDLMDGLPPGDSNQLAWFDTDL
Test: co-IP; immunoprecipitation (Supplementary S4A); cells and bait not stated in the text shown
Conditions: remark: other sources report otherwise

B1: LIM domain kinase 1 (LIMK1), P53667 1-647 (protein)
chain: MRLTLLCCTWREERMGEEGSELPVCASCGQRIYDGQYLQALNADWHADCFRCCDCSASLSHQYYEKDGQLFCKKDYWARYGESCHGCSEQITKGLVMVAGELKYHPECFICLTCGTFIGDGDTYTLVEHSKLYCGHCYYQTVVTPVIEQILPDSPGSHLPHTVTLVSIPASSHGKRGLSVSIDPPHGPPGCGTEHSHTVRVQGVDPGCMSPDVKNSIHVGDRILEINGTPIRNVPLDEIDLLIQETSRLLQLTLEHDPHDTLGHGLGPETSPLSSPAYTPSGEAGSSARQKPVLRSCSIDRSPGAGSLGSPASQRKDLGRSESLRVVCRPHRIFRPSDLIHGEVLGKGCFGQAIKVTHRETGEVMVMKELIRFDEETQRTFLKEVKVMRCLEHPNVLKFIGVLYKDKRLNFITEYIKGGTLRGIIKSMDSQYPWSQRVSFAKDIASGMAYLHSMNIIHRDLNSHNCLVRENKNVVVADFGLARLMVDEKTQPEGLRSLKKPDRKKRYTVVGNPYWMAPEMINGRSYDEKVDVFSFGIVLCEIIGRVNADPDYLPRTMDFGLNVRGFLDRYCPPNCPPSFFPITVRCCDLDPEKRPSFVKLEHWLETLRMHLAGHLPLGPQLEQLDRGFWETYRRGESGLPAHPEVPD
binding: binds
